± gives the standard deviation of the averaged measurements. Whole data set: some 1,600 compounds, median “normalized growth (OD600, IQM-normalized) in LPM” near 1, cut for the lowest 2% near 0.014. The list shows a part of the results.
System: Salmonella enterica serovar Typhimurium SL1344
Test: normalized growth (OD600, IQM-normalized) in LPM (fraction of plate interquartile mean); higher = more bacterial growth (less inhibition)
Settings: LPM pH 5.8; 10 µM; 16 h

SMILES | normalized growth
CC(=O)N[C@@H](CC(C)C)C(=O)O | 1.1 ± 0.047
Nc1nc(=O)c2nc(CNc3ccc(C(=O)N[C@@H](CCC(=O)O)C(=O)O)cc3)cnc2[nH]1 | 0.903 ± 0.031
O=C([O-])[C@H]1/C(=C/CO)O[C@@H]2CC(=O)N21.[Li+] | 1.12 ± 0.076
CC[C@H]1OC(=O)[C@H](C)[C@@H](O[C@H]2C[C@@](C)(OC)[C@@H](O)[C@H](C)O2)[C@H](C)[C@@H](O[C@@H]2O[C@H](C)C[C@H](N(C)C)[C@H]2O)[C@](C)(O)C[C@@H](C)/C(=N\OCOCCOC)[C@H](C)[C@@H](O)[C@]1(C)O | 0.852 ± 0.039
CC(C)NCC(O)COc1ccc(COCCOC(C)C)cc1 (stereo unspecified) | 1.06 ± 0.009
O=C1CN2Cc3c(ccc(Cl)c3Cl)N=C2N1 | 1.05 ± 0.055
Nc1nc(Cl)nc2c1ncn2[C@@H]1O[C@H](CO)[C@@H](O)[C@@H]1F | 1.11 ± 0.025
CC(=O)OCC(COC(C)=O)OC(C)=O | 1.05 ± 0.062
NC(=O)N1c2ccccc2C=Cc2ccccc21 | 1.06 ± 0.059
NCCC[C@H](N)C(=O)O | 0.945 ± 0.082
CN(C)CCN(Cc1cccs1)c1ccccn1 | 1.03 ± 0.053
CC(=O)N[C@@H](CC(=O)N[C@@H](CCC(=O)O)C(=O)O)C(=O)O | 0.968 ± 0.075
Cc1ccc(S(=O)(=O)NC(=O)NN2CC3CCCC3C2)cc1 (stereo unspecified) | 1.02 ± 0.044
CCn1cc(C(=O)O)c(=O)c2cnc(N3CCNCC3)nc21 | 1.02 ± 0.013
NCCS(=O)(=O)O | 1.1 ± 0.053
COc1cc2nc(N3CCN(C(=O)c4ccco4)CC3)nc(N)c2cc1OC | 1.15 ± 0.043
Oc1c(I)cc(I)c2cccnc12 | 0.58 ± 0.02
O=C(CCCN1CC=C(n2c(=O)[nH]c3ccccc32)CC1)c1ccc(F)cc1 | 1.1 ± 0.052
CCN(CC)CCNC(=O)c1cc(S(C)(=O)=O)ccc1OC | 1.02 ± 0.054
CCn1cc(C(=O)O)c(=O)c2ccc(C)nc21 | 0.071 ± 0.011
C[C@H]1[C@@H](O)O[C@@H]2O[C@@]3(C)CC[C@H]4[C@H](C)CC[C@@H]1[C@@]24OO3 | 1.13 ± 0.061
CCCCCC(C)N (stereo unspecified) | 1.08 ± 0.11
O=C(O)CCC(=O)OC[C@@H](NC(=O)C(Cl)Cl)[C@H](O)c1ccc([N+](=O)[O-])cc1 | 0.014 ± 0.00072
COc1ccc2cc(CCC(C)=O)ccc2c1 | 1.03 ± 0.032

SMILES | normalized growth
C#CCN(C)Cc1ccccc1 | 1.06 ± 0.048
OC(CCN1CCCCC1)(c1ccccc1)C1CC2C=CC1C2 (stereo unspecified) | 1.04 ± 0.022
CCN(CC)CC#CCOC(=O)C(O)(c1ccccc1)C1CCCCC1 (stereo unspecified) | 0.955 ± 0.025
CCN(Cc1ccncc1)C(=O)C(CO)c1ccccc1 (stereo unspecified) | 1.06 ± 0.13
CC(C)N1CCN(c2ccc(OCC3COC(Cn4cncn4)(c4ccc(Cl)cc4Cl)O3)cc2)CC1 (stereo unspecified) | 0.978 ± 0.059
CN1C2CCCC1CC(NC(=O)c1nn(C)c3ccccc13)C2 (stereo unspecified) | 1.06 ± 0.013
O=C([O-])c1ccccc1O.[Na+] | 0.705 ± 0.029
NC[C@H]1O[C@H](O[C@H]2[C@H](O[C@@H]3O[C@H](CO)[C@@H](O)[C@H]3O)[C@@H](O)[C@H](N)C[C@@H]2N)[C@H](N)[C@@H](O)[C@@H]1O | 1.01 ± 0.072
C=CC[C@@H]1/C=C(\C)C[C@H](C)C[C@H](OC)[C@H]2O[C@@](O)(C(=O)C(=O)N3CCCC[C@H]3C(=O)O[C@H](/C(C)=C/[C@@H]3CC[C@@H](O)[C@H](OC)C3)[C@H](C)[C@@H](O)CC1=O)[C@H](C)C[C@@H]2OC | 0.857 ± 0.044
CN1CCCC(n2nc(Cc3ccc(Cl)cc3)c3ccccc3c2=O)CC1 (stereo unspecified) | 1.04 ± 0.039
O=C(CNC(=O)c1ccc(Cl)cc1)NO | 1.06 ± 0.053
CN(C)CCC[C@@]1(c2ccc(F)cc2)OCc2cc(C#N)ccc21 | 1.08 ± 0.041
CC1=CC(=O)NS(=O)(=O)O1 | 0.928 ± 0.054
NC(=O)N/N=C/c1ccc([N+](=O)[O-])o1 | 1.13 ± 0.04
O=C(O[C@H]1CN2CCC1CC2)N1CCc2ccccc2[C@@H]1c1ccccc1 | 0.985 ± 0.021
CN1CCCCC1CCN1c2ccccc2Sc2ccc([S+](C)[O-])cc21 (stereo unspecified) | 0.963 ± 0.027
CO[C@@H]1[C@@H](OC(N)=O)[C@@H](O)[C@H](Oc2ccc3c(O)c(NC(=O)c4ccc(O)c(CC=C(C)C)c4)c(=O)oc3c2C)OC1(C)C | 0.0394 ± 0.026
CCN1CCN(C(=O)N[C@@H](C(=O)N[C@@H]2C(=O)N3[C@@H]2SC(C)(C)[C@@H]3C(=O)O)c2ccccc2)C(=O)C1=O | 1.013 ± 0.0089
CC(=O)Oc1cccc(O)c1 | 1.07 ± 0.025
CN(C)CCc1c[nH]c2ccc(Cn3cncn3)cc12 | 0.964 ± 0.026
OCCN1CCN(CCCN2c3ccccc3Sc3ccc(Cl)cc32)CC1 | 0.977 ± 0.032
Nc1ccc(S(=O)(=O)c2ccc(N)cc2)cc1 | 0.965 ± 0.043
COc1ccc(NS(=O)(=O)c2ccc(N)cc2)nn1 | 1.19 ± 0.035
Nc1ccc(C(=O)NCC(=O)O)cc1 | 1.05 ± 0.026

Fetched by structure from above (4):
SMILES | normalized growth
Nc1ccc(S(=O)(=O)c2ccc(N)cc2)cc1 | 0.965 ± 0.043
CC(=O)OCC(COC(C)=O)OC(C)=O | 1.05 ± 0.062
CCN(CC)CCNC(=O)c1cc(S(C)(=O)=O)ccc1OC | 1.02 ± 0.054
CN(C)CCC[C@@]1(c2ccc(F)cc2)OCc2cc(C#N)ccc21 | 1.08 ± 0.041

The results go on:

SMILES | normalized growth
CCC[C@H](N[C@@H](C)C(=O)N1[C@H](C(=O)O)C[C@@H]2CCCC[C@@H]21)C(=O)OCC | 1.02 ± 0.022
Cn1nnnc1SCC1=C(C(=O)O)N2C(=O)[C@@H](NC(=O)[C@H](O)c3ccccc3)[C@H]2SC1 | 0.952 ± 0.093
N=C(N)NCC1COC2(CCCCC2)O1 (stereo unspecified) | 0.863 ± 0.015
CC1(C)OC(=O)NC1=O | 0.957 ± 0.043
Cc1ncc(CSSCc2cnc(C)c(O)c2CO)c(CO)c1O | 1.08 ± 0.061
CC(=O)Oc1cccc2c1C(=O)c1c(OC(C)=O)cc(C(=O)O)cc1C2=O | 0.798 ± 0.022
N=C(N)NC(=N)N1CCOCC1 | 1.09 ± 0.092
C=C1C[C@H]2[C@@H]3C=C(C)C4=CC(=O)CC[C@]4(C)[C@H]3CC[C@]2(C)[C@@]1(OC(C)=O)C(C)=O | 1.02 ± 0.015
N[C@H]1C(O)O[C@H](CO)[C@@H](O)[C@@H]1O (stereo partly specified) | 0.974 ± 0.045
Nc1ccc(C(=O)Oc2ccccc2)c(O)c1 | 1.07 ± 0.026
CNNCc1ccc(C(=O)NC(C)C)cc1 | 1.05 ± 0.025
O=c1[nH]c(=O)n([C@H]2C[C@H](O)[C@@H](CO)O2)cc1F | 0.0114 ± 0.00023
CN(C)CCC=C1c2ccccc2C=Cc2ccccc21 | 0.996 ± 0.028
CN(C)CCc1c[nH]c2ccc(C[C@H]3COC(=O)N3)cc12 | 1 ± 0.036
NS(=O)(=O)c1cc2c(cc1Cl)NCNS2(=O)=O | 1 ± 0.035
Nc1ncnc2c1ncn2[C@@H]1O[C@H](COP(=O)(O)O)[C@@H](O)[C@H]1O | 1.05 ± 0.027
CCC(=O)O[C@H]1[C@H](O[C@@H]2[C@@H](C)[C@H](O[C@H]3C[C@@](C)(OC)[C@@H](O)[C@H](C)O3)[C@@H](C)C(=O)O[C@H](CC)[C@@](C)(O)[C@H](O)[C@@H](C)C(=O)[C@H](C)C[C@@]2(C)O)O[C@H](C)C[C@@H]1N(C)C | 0.819 ± 0.087
CC(c1cc2ccccc2s1)N(O)C(N)=O (stereo unspecified) | 1 ± 0.034
CC(=O)Oc1cc(C(C)C)c(OCCN(C)C)cc1C | 0.91 ± 0.02
O=C(O)c1cc(O)c2c(c1)[C@H]([C@H]1c3cc(C(=O)O)cc(O)c3C(=O)c3c(O[C@@H]4O[C@H](CO)[C@@H](O)[C@H](O)[C@H]4O)cccc31)c1cccc(O[C@@H]3O[C@H](CO)[C@@H](O)[C@H](O)[C@H]3O)c1C2=O | 1.06 ± 0.032
CN(C)CCCOc1nn(Cc2ccccc2)c2ccccc12 | 0.976 ± 0.065
CC(=O)OCC(=O)[C@@]1(O)CC[C@H]2[C@@H]3CCC4=CC(=O)CC[C@]4(C)[C@H]3C(=O)C[C@@]21C | 0.985 ± 0.068
COc1cc(C(=O)N2CCOCC2)cc(OC)c1OC | 0.985 ± 0.098
CC(=O)OCC(=O)[C@@]1(O)CC[C@H]2[C@@H]3CCC4=CC(=O)C=C[C@]4(C)[C@@]3(F)[C@@H](O)C[C@@]21C | 0.823 ± 0.054

SMILES | normalized growth
CCCCC(=O)O[C@]1(C(=O)CO)[C@@H](C)C[C@H]2[C@@H]3CCC4=CC(=O)C=C[C@]4(C)[C@@]3(F)[C@@H](O)C[C@@]21C | 1.51 ± 0.2
S=C=Nc1ccc(N=C=S)cc1 | 1.07 ± 0.049
OC[C@@H](O)[C@@H](O)[C@H](O)[C@@H](O)CO | 0.929 ± 0.028
C#C[C@]1(O)CC[C@H]2[C@@H]3[C@H](C)CC4=C(CCC(=O)C4)[C@H]3CC[C@@]21C | 0.987 ± 0.048
CC1CCC(NC(=O)N(CCCl)N=O)CC1 (stereo unspecified) | 1.11 ± 0.02
Oc1ccc(O)cc1 | 0.997 ± 0.056
COc1cc2nc(N3CCN(C(=O)C4CCCO4)CC3)nc(N)c2cc1OC (stereo unspecified) | 0.998 ± 0.019
Nc1ccc(S(=O)(=O)Nc2ccc(Cl)nn2)cc1 | 1.09 ± 0.09
Cc1cc2nc3ccc(N(C)C)cc3[s+]c2cc1N | 0.665 ± 0.022
CC(C)(O/N=C(\C(=O)N[C@@H]1C(=O)N2C(C(=O)[O-])=C(C[n+]3ccccc3)CS[C@H]12)c1csc(N)n1)C(=O)O | 0.0782 ± 0.0096
CCc1c2c(nc3ccc(OC(=O)N4CCC(N5CCCCC5)CC4)cc13)-c1cc3c(c(=O)n1C2)COC(=O)[C@]3(O)CC | 1.01 ± 0.034
C[C@H]1[C@H](NC(=O)/C(=N\OC(C)(C)C(=O)O)c2csc(N)n2)C(=O)N1S(=O)(=O)O | 0.0891 ± 0.0024
CNCCC=C1c2ccccc2CCc2ccccc21 | 1.03 ± 0.053
CCc1cc(C(N)=S)ccn1 | 1.16 ± 0.084
CC(=O)Nc1c(I)c(NC(C)=O)c(I)c(C(=O)O)c1I | 1.12 ± 0.06
CC(=O)Nc1ccc(S(=O)(=O)Nc2ccc([N+](=O)[O-])cc2)cc1 | 0.913 ± 0.049
Cc1ccc(C(=O)Nc2ccc(S(=O)(=O)O)c3cc(S(=O)(=O)O)cc(S(=O)(=O)O)c23)cc1NC(=O)c1cccc(NC(=O)Nc2cccc(C(=O)Nc3cc(C(=O)Nc4ccc(S(=O)(=O)O)c5cc(S(=O)(=O)O)cc(S(=O)(=O)O)c45)ccc3C)c2)c1 | 0.988 ± 0.081
O=C(N/N=C/c1ccc([N+](=O)[O-])o1)c1ccc(O)cc1 | 0.972 ± 0.071
CN1CCN(C(c2ccccc2)c2ccc(Cl)cc2)CC1 (stereo unspecified) | 1.15 ± 0.052
C[C@@H]1CN(c2c(F)c(N)c3c(=O)c(C(=O)O)cn(C4CC4)c3c2F)C[C@H](C)N1 | 0.0193 ± 0.0046
C[C@@H]1O[C@@H]1P(=O)(O)O | 0.909 ± 0.032
Cc1ccc(S(=O)(=O)NCl)cc1 | 0.83 ± 0.069
CCn1cc(C(=O)O)c(=O)c2cc(F)c(N3CCN(C)CC3)cc21 | 0.0116 ± 0.00051
CCC1=C[C@@H]2CN(C1)Cc1c([nH]c3ccccc13)[C@@](C(=O)OC)(c1cc3c(cc1OC)N(C)[C@H]1[C@@](O)(C(=O)OC)[C@H](OC(C)=O)[C@]4(CC)C=CCN5CC[C@]31[C@@H]54)C2 | 1.47 ± 0.21
